At least one structure is not confirmed: it was looked up by name or label, or the drawing left a doubt.
Test system: mice fed high fat diet (HFD)
Test: Fasting glucose and glucose tolerance test in HFD mice (Example 11)
Format: in vivo, C57BL/6J mice
Details: 10 mg/kg, two weeks, glucose 1 mg/g i.p., FIG. 8C
Protocol: Thirty-two C57BL/6J mice 8-weeks old were selected and randomly separated. The mice (n=8) were fed ad libitum for two weeks with either CHOW diet or high fat diet (HFD, 60% of fat content). Each group was divided in half 8 animals received regular water and the other 8 received (S)-2-amino-6-((3-aminopropyl)amino)hexanoic acid dihydrochloride dissolved in water so as to administer about 10 mg/kg of the drug body weight per mouse, per day. As an additional experimental control (n=8), a group of mice receiving HFD also received pioglitazone (10 mg/kg). Poglitazone is a well-known anti-diabetic agent. It has the ability to increase glucose uptake into the cells. […] At the end of the two weeks, animals were fasted for 5 hours, weighed, and their tails were clipped to measure fasting blood glucose levels. Immediately after, glucose was administered intraperitoneally (1 mg/g of body weight). Glucose levels were measured at 20, 40, 80 and 140 minutes after glucose administration in a glucose time test (GTT). Animals were euthanized under anesthesia (isoflurane). Blood, liver, fat and muscle tissues were collected and flash frozen for the studies. […]

SMILES: CCc1ccc(CCOc2ccc(CC3SC(=O)NC3=O)cc2)nc1 (stereo not shown) [Pioglitazone, pioglitazone, reference compound]
- glucose tolerance test: only moderate glucose tolerance improvement
